These are yes or no findings as the source states them, for the method shown. Some entries that bind do so weakly or less than the wild type. Sequences can lack the tags named with a protein.
Target: T1, Neuropilin 1 (NRP1), R&D 3870-N1-025 (UniProt O14786)
T1 sequence (biotinylated at a 1,2 molar ratio, looked up): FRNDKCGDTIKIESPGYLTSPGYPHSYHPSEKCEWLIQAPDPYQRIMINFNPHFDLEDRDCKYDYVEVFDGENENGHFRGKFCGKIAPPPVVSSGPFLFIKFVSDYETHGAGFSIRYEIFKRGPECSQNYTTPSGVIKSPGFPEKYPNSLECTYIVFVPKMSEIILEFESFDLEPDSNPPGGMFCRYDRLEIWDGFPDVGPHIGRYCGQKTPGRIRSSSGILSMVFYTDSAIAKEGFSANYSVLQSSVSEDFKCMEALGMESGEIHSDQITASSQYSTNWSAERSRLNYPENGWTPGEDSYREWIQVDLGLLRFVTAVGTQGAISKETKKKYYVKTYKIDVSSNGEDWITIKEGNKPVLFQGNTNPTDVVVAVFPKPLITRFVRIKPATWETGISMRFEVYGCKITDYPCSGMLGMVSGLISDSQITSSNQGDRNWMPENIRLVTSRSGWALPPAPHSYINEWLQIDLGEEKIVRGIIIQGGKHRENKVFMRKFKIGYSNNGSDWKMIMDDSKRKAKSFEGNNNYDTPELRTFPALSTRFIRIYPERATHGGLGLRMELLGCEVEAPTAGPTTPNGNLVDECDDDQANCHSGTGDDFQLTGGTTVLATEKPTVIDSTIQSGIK
Assay: BLI, NRP1 on biosensor

B1: Fc-fusion CTR-RELN WT (184I pfcn-huIgG2-C-termH3447WT) (Fc fusion)
chain: APLERKSSVECPPCPAPPVAGPSVFLFPPKPKDTLMISRTPEVTCVVVDVSHEDPEVQFNWYVDGVEVHNAKTKPREEQFNSTFRVVSVLTVVHQDWLNGKEYKCKVSNKGLPAPIEKTISKTKGQPREPQVYTLPPSREEMTKNQVSLTCLVKGFYPSDIAVEWESNGQPENNYKTTPPMLDSDGSFFLYSKLTVDKSRWQQGNVFSCSVMHEALHNHYTQKSLSLSPGARTSTRKQNYMMNFSRQHGLRHFYNRRRR
For B1, the binding was “binds”.

— patent publication US20260139017A1, “COMPOSITIONS AND METHODS USING REELIN IN ALZHEIMER'S DISEASE” (The General Hospital Corporation, priority 2022, published 2026)
